# According to publication PMC7819943, “Rice protein-binding microarrays: a tool to detect cis-acting elements near promoter regions in rice”:
# Protein sequences, listed by entry. Tags and fused reporters are not part of them.
# UniProt Q0JBA9, entry or part of it: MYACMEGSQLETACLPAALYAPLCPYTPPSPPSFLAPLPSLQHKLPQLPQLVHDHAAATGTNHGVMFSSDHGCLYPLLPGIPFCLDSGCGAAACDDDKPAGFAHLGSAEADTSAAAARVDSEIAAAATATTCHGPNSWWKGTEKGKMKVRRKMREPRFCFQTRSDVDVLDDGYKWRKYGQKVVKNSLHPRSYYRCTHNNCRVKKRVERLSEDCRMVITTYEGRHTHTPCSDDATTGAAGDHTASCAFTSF
# The other results are listed elsewhere or left out.
# Target: OsWRKY34 (Oryza sativa, UniProt Q0JBA9 1-250)
# Experiment: protein-binding microarray (RPBM); PBS, 2% BSA, 51.3 ng/ul salmon testes DNA, 50 uM zinc acetate, 200 nM TF, 25 C, 1 h; high values mean tight binding
# Conditions: protein: recombinant; tags: N-terminal polyhistidine and DsRed monomer fusion (pET32a); label: CyDye5-dUTP incorporated in the synthesized complementary strand; 3' TTTTT single-stranded linker to array surface; dsDNA, one strand shown
# Method in brief: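 Transcription factors were made in E. coli BL21-CodonPlus as N-terminal fusions to a polyhistidine tag and DsRed, then purified on Ni–NTA. After primer extension with Cy5-dUTP and blocking with 2% BSA, a custom Agilent array was exposed for 1 h at 25 °C to 200 nM protein in PBS, 2% BSA, salmon testes DNA and 50 µM zinc acetate. Washed arrays were scanned on an Axon 4000B, and the binding signal is per-feature fluorescence intensity in arbitrary units.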
row,Sequence,binding signal
1,CGATTTATGTGCCGGGGAGTACCCTCACTCTCGAACAGAGCGGAGTCACCTAGTGCAG,13200 fluorescence intensity (a.u.)
2,ACGTTTATTTCTTCTGTTGAAAAATGCGCAGTGCTTTTTCCGGAGTCACCTAGTGCAG,9960 fluorescence intensity (a.u.)
3,GGGCGGTGCTCCGTTGACCGTGATGGAGCCGTTCCAGTACCGGAGTCACCTAGTGCAG,12900 fluorescence intensity (a.u.)
4,CACATATTGATCTATTCTACTAAATTTTTTTTATGACTTTCGGAGTCACCTAGTGCAG,8630 fluorescence intensity (a.u.)
5,ATGTGTGTGTTTTTTAGCCGGTGCAATTAGATTTTTCATGCGGAGTCACCTAGTGCAG,11500 fluorescence intensity (a.u.)
6,AACACCACCTGTCGCTGATTCCCTGCCGCATCTTCTCATCCGGAGTCACCTAGTGCAG,10600 fluorescence intensity (a.u.)
7,ATATTCTTATACGTGCACTATTTCTATCCAACGTGGAATCCGGAGTCACCTAGTGCAG,9890 fluorescence intensity (a.u.)
8,TACTCGTCTAGTTGATCACCTCTAACGTTATCATTTTCTTCGGAGTCACCTAGTGCAG,8160 fluorescence intensity (a.u.)
9,ATTGAATTTGTACAATATTCTTCCTGCTGTTTCGGATCCTCGGAGTCACCTAGTGCAG,9840 fluorescence intensity (a.u.)
10,CTCCTCCTCCGTCTTCTTGCGGCCGCCTCGCCTGTTCTTGCGGAGTCACCTAGTGCAG,8580 fluorescence intensity (a.u.)
11,TTCTGCTTTGTAATCTTGTAAATGAATTCATATATTTTTACGGAGTCACCTAGTGCAG,8380 fluorescence intensity (a.u.)
12,ACAATTCCTACATCCATTTAACTATAATATTCATCCGATCCGGAGTCACCTAGTGCAG,8050 fluorescence intensity (a.u.)
13,GGTGACGCCTTATGAATGTACGCGTCCTTACTGTCTCTTTCGGAGTCACCTAGTGCAG,8600 fluorescence intensity (a.u.)
14,CCGTGCACGCTCCCAGATCATGCCACGTGGGTGGGCCCCACGGAGTCACCTAGTGCAG,9020 fluorescence intensity (a.u.)
15,GATGGAGTACTAGTTGACTTGACCTATCAGGCTCTCACCCCGGAGTCACCTAGTGCAG,8580 fluorescence intensity (a.u.)
16,TCACAAATGACAGAACTTACAGGCTCTTCACCTCTCTACTCGGAGTCACCTAGTGCAG,9310 fluorescence intensity (a.u.)
17,GGCTCGGGGCGGCGGAATCATGGGCGATTGGGGCGGCAACCGGAGTCACCTAGTGCAG,22500 fluorescence intensity (a.u.)
18,TTGGCCTCTTTTCCAATTGTAGTGGCATACGGCCCACTTCCGGAGTCACCTAGTGCAG,8740 fluorescence intensity (a.u.)
19,CATATACTACATTTTCTTCTTACTACCATTTCAATTCAACCGGAGTCACCTAGTGCAG,9380 fluorescence intensity (a.u.)
20,CCCTAATACAATTATTTCTTACTTTATGTACTTCTAATATCGGAGTCACCTAGTGCAG,8950 fluorescence intensity (a.u.)
21,TCTTTCTGTACTTTTCTTTCTTCATTCATGCCGTGATCGACGGAGTCACCTAGTGCAG,8830 fluorescence intensity (a.u.)

row,Sequence,binding signal
1,ATATTACATTGCTTGTTCAATATACCCTCTTTATCTTTTCCGGAGTCACCTAGTGCAG,8460 fluorescence intensity (a.u.)
2,TGTGACGCTCTGTTTCTGTTATTCTTTCTGAACCGTTTTCCGGAGTCACCTAGTGCAG,9470 fluorescence intensity (a.u.)
3,TGCATGGGTGTCATATCTAGTTGCTATTCAAAATTCATATCGGAGTCACCTAGTGCAG,8220 fluorescence intensity (a.u.)
4,CGAGCTGCCTCCACTGCCTCGCCCACCATTACTACTTCCTCGGAGTCACCTAGTGCAG,8340 fluorescence intensity (a.u.)
5,CTCCGCCGCCGCACTCGCGCTCCGCTACTCTGTCCGCGGCCGGAGTCACCTAGTGCAG,9990 fluorescence intensity (a.u.)
6,ACTTATGTTGGGTTTCATTTATTCTCGGTCGAATCATGCTCGGAGTCACCTAGTGCAG,9530 fluorescence intensity (a.u.)
7,TTGCTTGGGTTGGGTTGGAGCGGTGAGACGAGAGATTGAGCGGAGTCACCTAGTGCAG,12600 fluorescence intensity (a.u.)
8,CCCTTCCACAAATCCAAATTCCTATTAGCCTCAAATACTTCGGAGTCACCTAGTGCAG,8840 fluorescence intensity (a.u.)
9,ATTCGCCGCCTCGCCTAACCAAAACGCGTCCCTTTCCTCGCGGAGTCACCTAGTGCAG,8560 fluorescence intensity (a.u.)
10,ATACCGACATTGCTCAAGCTCATTATCATCATCTCCGGGTCGGAGTCACCTAGTGCAG,9200 fluorescence intensity (a.u.)
11,GTGTATAATGGGGTTGAGTTGATTCGTTGAATTGATTGCTCGGAGTCACCTAGTGCAG,8920 fluorescence intensity (a.u.)
12,ATGTTCCTATTTAATCAAATTTTGTTCAACATTACAAATACGGAGTCACCTAGTGCAG,8100 fluorescence intensity (a.u.)
13,TCATCTCATATATGGTTTGACCGCGATGGTTTGTTTGCCACGGAGTCACCTAGTGCAG,8650 fluorescence intensity (a.u.)
14,TTCTTCCTTAAAATTGTATTCTGGGTGGGGAATTGGTTTACGGAGTCACCTAGTGCAG,15700 fluorescence intensity (a.u.)
15,GTTATTACGGCCCACTCCCGCTATTACATGCCGCACAAGCCGGAGTCACCTAGTGCAG,10900 fluorescence intensity (a.u.)
16,ACCCGACACCCCGACCTCAACTACGACCATAACAATAGCACGGAGTCACCTAGTGCAG,8850 fluorescence intensity (a.u.)
17,GTCCATTATCTTCTTTGCCACCATTGATATATGCCTAACACGGAGTCACCTAGTGCAG,13800 fluorescence intensity (a.u.)
18,AAAATATGTTACTTCCGAATTTCATCCCGTATGTTCGGACCGGAGTCACCTAGTGCAG,8160 fluorescence intensity (a.u.)
19,AGAAACCAAGCACGCATCCATATCCATCCATGCATCCAATCGGAGTCACCTAGTGCAG,8770 fluorescence intensity (a.u.)
20,CCATTCTTTCATCTCGCTTCACCTCATCGCCATTGCCATCCGGAGTCACCTAGTGCAG,8810 fluorescence intensity (a.u.)
21,GATGTGCAAAATCTAGACCGTTCCACTTGATTATCCATATCGGAGTCACCTAGTGCAG,8100 fluorescence intensity (a.u.)

row,Sequence,binding signal
1,ACACTTCTTTTTGGACAATACTAGCATTACTTTCTAAAGCCGGAGTCACCTAGTGCAG,8910 fluorescence intensity (a.u.)
2,TGGCCAGCTTCACCGCGAAGCGCCACGTGTCTTCCACTCACGGAGTCACCTAGTGCAG,10200 fluorescence intensity (a.u.)
3,GCCCGCGCGCCCGTCGCGCACCCTATCCTCGCCGCGCGCCCGGAGTCACCTAGTGCAG,9920 fluorescence intensity (a.u.)
4,CGTTCGCTTCGTTAACCTCCGTTTCGTACGACGGAGGAGCCGGAGTCACCTAGTGCAG,8040 fluorescence intensity (a.u.)
5,CGCCTATCTCTACCGCGCGCCCTCCGCCCCGCGGGCCCTTCGGAGTCACCTAGTGCAG,8800 fluorescence intensity (a.u.)
6,CAATCCAAGGTAATCTCATCAATAATCTCCTCGCTACACTCGGAGTCACCTAGTGCAG,8170 fluorescence intensity (a.u.)
7,GACCGACTACTCCTACAAACATTACTCAAGTCATTGCAAACGGAGTCACCTAGTGCAG,8200 fluorescence intensity (a.u.)
8,TATAAATACTGCCAGCCTCTTCGTTCGTTTCCATTTTTCCCGGAGTCACCTAGTGCAG,9610 fluorescence intensity (a.u.)
9,ACAGATTTGTCTCTGCAGCTGCTTCAATGCATAAACCGAACGGAGTCACCTAGTGCAG,8630 fluorescence intensity (a.u.)
10,TTGTCAAGTTGTTGCACTCGAACGTTTAATTCTCAAGTTCCGGAGTCACCTAGTGCAG,8560 fluorescence intensity (a.u.)
11,GAATGCATGTCCCAGTCATACTAATCGACTCACTTTCACACGGAGTCACCTAGTGCAG,8840 fluorescence intensity (a.u.)
12,TCCACTTATCATCTCTTAACTCTCCACTTTCATCCATCTCCGGAGTCACCTAGTGCAG,8200 fluorescence intensity (a.u.)
13,ATCTATAGTCGACCCAACACAGCGACACCACCAGCGCCCACGGAGTCACCTAGTGCAG,8250 fluorescence intensity (a.u.)
14,ACGTCTCCTCGTCACCACTCGCCACAAGTCCACCGCAGCACGGAGTCACCTAGTGCAG,8360 fluorescence intensity (a.u.)
15,GCAACGGGGAGGTGGGCGGAGGTGCGGCGCGGCGGCGGGCCGGAGTCACCTAGTGCAG,10300 fluorescence intensity (a.u.)
16,CTTTCCGGCCATCCGGCCCCGGTGCTTTGGTTGGGCCCATCGGAGTCACCTAGTGCAG,8020 fluorescence intensity (a.u.)
17,AGTAGTATTTTCTCTGGTCCCATAATTCTTAACGTTTTGACGGAGTCACCTAGTGCAG,12100 fluorescence intensity (a.u.)
18,TCACCTCCGTCGTCGTCCGCCCTCCACCCGCCGCCGCCGACGGAGTCACCTAGTGCAG,11000 fluorescence intensity (a.u.)
19,CACATGTGCCAACTACCCCTCCGTGGGTATTTCCGTCATTCGGAGTCACCTAGTGCAG,8850 fluorescence intensity (a.u.)
20,ACCTTGGACCACTTAATATAACCATTTGTTTCATCCTGGACGGAGTCACCTAGTGCAG,8420 fluorescence intensity (a.u.)
21,ATCTGTTCGGCCGGCCCAACCGTCTCGCCGCCCGTCTCCGCGGAGTCACCTAGTGCAG,8680 fluorescence intensity (a.u.)

# Copied from the list.
# In binding signal, TCACCTCCGTCGTCGTCCGCCCTCCACCCGCCGCCGCCGACGGAGTCACCTAGTGCAG is listed with 11000 fluorescence intensity (a.u.)
# In binding signal, ATCTATAGTCGACCCAACACAGCGACACCACCAGCGCCCACGGAGTCACCTAGTGCAG is listed with 8250 fluorescence intensity (a.u.)
# In binding signal, ACAGATTTGTCTCTGCAGCTGCTTCAATGCATAAACCGAACGGAGTCACCTAGTGCAG is listed with 8630 fluorescence intensity (a.u.)
# In binding signal, GCAACGGGGAGGTGGGCGGAGGTGCGGCGCGGCGGCGGGCCGGAGTCACCTAGTGCAG is listed with 10300 fluorescence intensity (a.u.)

# (listing goes on)

row,Sequence,binding signal
1,CATCTGTTTCTGAATATTTGACGCCGTTGACTTTTTAAAACGGAGTCACCTAGTGCAG,19600 fluorescence intensity (a.u.)
2,CATCTTACTGGTCAGATCCTTGGTCATGCATATCTGTTCCCGGAGTCACCTAGTGCAG,9270 fluorescence intensity (a.u.)
3,GTTCATTTTCATGTTATTTTTCATGTAACTACATTATTATCGGAGTCACCTAGTGCAG,8990 fluorescence intensity (a.u.)
4,CTTCCGGATAGTTCTCGTTTGTTCGTTAATTTGGGCCGAACGGAGTCACCTAGTGCAG,8620 fluorescence intensity (a.u.)
5,GACTAATATGCTCCTGACGAACTGATCCTGTCCATATCCACGGAGTCACCTAGTGCAG,8430 fluorescence intensity (a.u.)
6,CATTGATTTTCACAGTCTTTCTTGTTTTTTTTTCCTCTTACGGAGTCACCTAGTGCAG,9480 fluorescence intensity (a.u.)
7,GTTACCCTCTCCCTTTCTTGGCGAGCTTCTCTGGGTGAAACGGAGTCACCTAGTGCAG,8520 fluorescence intensity (a.u.)
8,TTCTGGCAAGCTTGTGATTCCTTGTCTTTTGCAGATACGTCGGAGTCACCTAGTGCAG,8670 fluorescence intensity (a.u.)
9,ACAGTTTTCTCCATCTTGGCCATTCGTGTGCTATATCCATCGGAGTCACCTAGTGCAG,16500 fluorescence intensity (a.u.)
10,CGCCCAACCGCCTCCCGCCACACACACACGACACAACCCGCGGAGTCACCTAGTGCAG,9300 fluorescence intensity (a.u.)
11,GAAACGGGTCTTTTTTATTTTGTCTCCAACACCAGTTTGCCGGAGTCACCTAGTGCAG,12100 fluorescence intensity (a.u.)
12,GGCTCCGAATTTCCTTTGTGATCATCCCTCTATTCATTTTCGGAGTCACCTAGTGCAG,8460 fluorescence intensity (a.u.)
13,ATGCCGCTCTATCTCTCTCTCTCTCTCTCTCTCTCTCTCTCGGAGTCACCTAGTGCAG,9760 fluorescence intensity (a.u.)
14,TGGCGCAATCAAACTAACACCGCTTTACGCTTTCGCCGCCCGGAGTCACCTAGTGCAG,9580 fluorescence intensity (a.u.)
15,TAAGTTTGCCAGTTCTGCAGTTCATGTATCTGTAATTTGACGGAGTCACCTAGTGCAG,8370 fluorescence intensity (a.u.)
16,TGGGTCCCTGGTTTTATTAGTCCACAGTTTGTCACTGCCTCGGAGTCACCTAGTGCAG,9090 fluorescence intensity (a.u.)
17,GTGTCGCCGTCTGTATACCAACTGCTCCTCGCTTTCGTTTCGGAGTCACCTAGTGCAG,13500 fluorescence intensity (a.u.)
18,GTTTCGAGTCCGAACCAAGTCACAGTCCGGTTTATTTTATCGGAGTCACCTAGTGCAG,9220 fluorescence intensity (a.u.)
19,GGTGGGTGGGGATCCACCTATACCTGGCCAAATGGGCCGTCGGAGTCACCTAGTGCAG,8490 fluorescence intensity (a.u.)
20,GGTCAGTTCAGTTGGTCTACCGGTTTTGCTTGCATTCCTGCGGAGTCACCTAGTGCAG,8140 fluorescence intensity (a.u.)
21,TTTTTTAACCTCACCTCACCTCCCCTTTTGATTGATATTTCGGAGTCACCTAGTGCAG,8080 fluorescence intensity (a.u.)
